Library screen at single concentrations

Sequences of proteins named here, by UniProt entry; tags and fusion partners are left off.
UniProt P9WNZ1, whole entry: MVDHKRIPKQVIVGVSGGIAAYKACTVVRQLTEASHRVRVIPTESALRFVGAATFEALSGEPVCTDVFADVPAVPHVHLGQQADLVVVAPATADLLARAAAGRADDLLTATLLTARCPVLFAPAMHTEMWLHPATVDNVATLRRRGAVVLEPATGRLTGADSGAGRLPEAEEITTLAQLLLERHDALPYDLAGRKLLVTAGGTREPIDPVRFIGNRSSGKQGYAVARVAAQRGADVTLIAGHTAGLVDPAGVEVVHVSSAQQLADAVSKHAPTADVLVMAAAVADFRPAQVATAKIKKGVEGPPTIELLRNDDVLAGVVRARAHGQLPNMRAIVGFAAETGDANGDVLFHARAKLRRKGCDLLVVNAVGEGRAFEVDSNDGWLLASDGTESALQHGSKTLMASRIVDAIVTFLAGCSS

Leishmania in macrophages: 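Cell assay of Leishmania donovani living inside macrophages; the read-out is not stated. Concentration: 30 µM. Direction is inferred from retests: higher values go with stronger inhibition. About 69,000 compounds were tested under these conditions; 1.5% (about 1,000) showed 50% or more at least once.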
CoaBC: 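Coenzyme A biosynthesis protein CoaBC, Mycobacterium tuberculosis (UniProt P9WNZ1). Enzyme assay of CoaBC with a phosphate dye (Biomol Green) read at 650 nm. Tested at 30 µM. Higher reads as stronger inhibition, judged from the few compounds that gave an IC50. Most strong results did not repeat in a second test. About 67,000 compounds were tested under these conditions; 0.06% (about 40) showed 50% or more at least once.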

Results are given as percent effect. How 0% and 100% were set is not recorded. Most values in the screen are low, and negative values occur. The compounds are a random part of those screened. A dash means the value is not listed here; it may have been measured.

structure	Leishmania in macrophages	CoaBC
CN1CCC(NCC(O)c2cccc(OCc3ccccc3)c2)CC1 (centres undefined)	100.4	0.9639
COCC(=O)N1CC[C@H]2[C@H]1CCN2CC(C)C	-	0.2114
O=C(c1cccc(C2CCNC2)c1)N1CCC(N2CCC(O)CC2)CC1 (centres undefined)	-32.57	5.443
Cl.[H][C@@]12CCN(Cc3cccs3)C[C@]1([H])[C@@H](c1ccsc1)CN2C(=O)C(C)(C)C	18.28	-
CNc1nccnc1C1CCN(C(C)C)CC1	-7.721	-1.716
CN1Cc2cc(F)ccc2N(CC(C)(C)O)CCC1=O	-5.69	-5.811
COc1ccc(Cl)cc1-c1cc(NC(=O)CNC(=O)C2CC2)[nH]n1	-5.235	-2.137
Cc1cnn(CC2CN(Cc3cccc(OCC(N)=O)c3)CCO2)c1 (centres undefined)	-7.017	0
CCc1cnc(NCC(c2cccnc2)N2CCOCC2)nc1 (centres undefined)	28.27	4.555
Cc1ccnc(NC(=O)c2ccc(F)c(S(=O)(=O)NC3CC3)c2)c1	-11.15	2.93
Cc1ccc(NC2CCN(C(=O)c3ccoc3C)CC2)nn1	12.12	6.65
CN(C)Cc1nn(C)c2c1CCN(S(=O)(=O)c1cccs1)C2	35.48	3.929
Cc1cn2c(n1)C(CNCC1=Cc3cc(Cl)ccc3OC1)CCC2 (centres undefined)	69.51	-24.51
[H][C@@]12COC[C@]1(C(=O)N(C)Cc1ccccn1)CN(Cc1cnn(C)c1)C2	-33.62	-
CS(=O)(=O)c1ccccc1-n1cc(NC(=O)CC(F)(F)F)cn1	43.56	-1.342
COCCCNC(=O)COc1ccccc1C(F)(F)F	6.767	2.893
O=C([C@H]1C[C@H]2OCC[C@H]2N(C(=O)c2ccncc2)C1)N1CCCCO1	-	-2.157
Cc1ccc(C(=O)O)cc1CNC(=O)CN1CC(C)(C)[C@@](C)(O)C1	14.97	9.223
Cc1cc(C)c2ncc(C#N)c(NC3CCN(CC(N)=O)CC3)c2c1	5.1	-6.935
CCCn1nc(C)c2c(C(F)F)cc(=O)n(CC(=O)O)c21	18.18	1.848
Cc1cc(C)n(CCCN(CCN2CCOCC2)Cc2ccco2)n1	17.44	10.37
CC(C)n1ncc2c1NC(=O)C(C#N)C21CCCCC1 (centres undefined)	21.49	-7.258
[H][C@@]12CCCO[C@]1([H])[C@H](Oc1cccnc1)CN2C(=O)c1cscn1	13.34	-
[H][C@]12CC[C@]([H])(CN(S(C)(=O)=O)C1)N(CCC(=O)NCc1ccccc1F)C2	-21.9	-
COC1CCCOC12CCN(C(=O)NCc1ccco1)CC2 (centres undefined)	1.184	2.642
Fc1ccc(CCC2CCCN(Cc3c[nH]cn3)C2)c(F)c1 (centres undefined)	8.267	-19.84
CCCOC1CCCN(c2ncnc3c2CCN(C(=O)C2CC2)C3)C1 (centres undefined)	-19.8	4.791
c1cc(-c2cnc(NC3CC3)nc2[C@@H]2CCCO2)ccn1	15.86	2.797
O=C(c1occc1CN1C(=O)Cc2ccccc21)N1CC(O)C1	-6.583	-0.1267
COc1ccccc1N1CC(NC(=O)c2cc(C(C)C)nn2C)CC1=O (centres undefined)	57.19	1.975
CN1CCC(O)(CNCc2ccc(F)c(C(F)(F)F)c2)CC1	85.74	-18.59
Cc1ccc(N2CC[C@H]3O[C@@H](C(=O)N4CCCCO4)CC[C@H]32)nn1	-	3.902
Cn1cc(C(=O)NCC2CCN(C(=O)NC3CC3)CC2)cn1	6.396	10.56
O=C(O)COc1ccccc1CN1CCCC1c1ccncn1 (centres undefined)	13.16	3.098
CC(c1ccccc1Cl)N1CCN(C(=O)c2ccc(=O)[nH]c2)CC1 (centres undefined)	16.13	0
CC1(c2ccccc2)CCC(=O)N(CCN2CCCOC2=O)C1 (centres undefined)	-24.18	-0.3745
CC(C)Cc1cc(C(=O)NCCN2CCCS2(=O)=O)[nH]n1	19.42	4.604
CN(C)CCN(Cc1ccccn1)Cc1ccnn1C1CCCCO1.O=C(O)CC(O)(CC(=O)O)C(=O)O (centres undefined)	29.57	-
CNc1ncc(-c2csc(NC(=O)C[C@H]3COCCN3)n2)cn1	-	0.1205
Cn1cc(CN2CCCC3(COCCN(c4cccnc4)C3)C2)cn1 (centres undefined)	-	5.25
Cc1cc(C)c(S(N)(=O)=O)cc1C(=O)NCCN1CCCCC1	8.775	-17.71
CCS(=O)(=O)NCC(=O)N1CC2(CCCC2)c2c(F)cccc21	4.486	-
Cc1ccccc1C(=O)CN1C(=O)c2ccccc2CS1(=O)=O	-39	-8.316
O=C(CC1CC1)N[C@@H]1CN(Cc2ccoc2)C[C@@H]2CCCO[C@@H]21	-	-5.537
Cc1cc(-c2cnc(NC3CC3)nc2-c2ccc(C)o2)on1	-0.2282	5.699
O=C(CNC(=O)c1ccccc1F)NCc1ccccn1	-0.9331	1.75
c1cnn(CC2CN(Cc3nc(-c4ccoc4)no3)CCO2)c1 (centres undefined)	-19.76	4.075
Cc1nn2c(NC(=O)CSc3nccn3C)csc2nc1=O	19.93	-2.058
CCN(CC)C(=O)Cn1ccc2cc(NC(=O)C3CCCO3)ccc21 (centres undefined)	-4.55	-7.181
O=S(=O)(Cc1ccccc1)c1nnc(N2CCCC2)s1	16.42	0.6098
COc1ccccc1OCCNCc1c(C(C)C)nn(C)c1N(C)C	0	2.046
O=C(NC1CCCC1)c1n[nH]c2c1CNCC2	-5.717	6.107
COc1ccc(C(=O)CNC(=O)c2nc(Cl)sc2C(C)C)cc1	3.459	-15.8
CS(=O)(=O)c1ccc(NCc2ccccc2)cn1	-16.59	-
CNC(=O)c1ccc(Cn2ccnc2S(C)(=O)=O)cc1	5.222	-4.668
CCCOc1c(CNC2CCSC2)cccc1OC (centres undefined)	6.18	-1.607
Cc1cccc(OCC(=O)N(C)C2CCN(CC3CCOC3)CC2)c1 (centres undefined)	19.55	-2.037
COCCOc1ncccc1-c1noc([C@@H]2CCCN2C2CCC2)n1	19.05	-6.402
Cc1cc(CN(C)C(=O)C2CCS(=O)(=O)C2)no1 (centres undefined)	32.1	7.692
CCCC(=O)NCCc1nc2cc(-c3ccc(OC)cc3)ncn2n1	11.67	-12.08
Cc1nc(CN2C(=O)COC3(CCN(Cc4ccsc4)CC3)C2C)cs1.O=C(O)C(F)(F)F (centres undefined)	22.04	-
Cc1cc(CN2CCN(C(=O)NCCc3csc(C)n3)CC2)on1	15.06	-1.695
Cc1cccc(C(Nc2nccc(-c3ccc(C)nc3C)n2)C2CC2)n1 (centres undefined)	24.61	5.383
COc1ccc2cc(C(=O)N3CCCC(n4ccnc4C)C3)[nH]c2c1 (centres undefined)	21.23	2.625
Cc1cc(C)c(CNC(=O)N(C)Cc2cccc(F)c2)c(=O)[nH]1	-18.24	3.259
O=C1[C@@H]2CN(c3ncc(Cl)cc3F)C[C@]2(C(=O)O)CN1CC1CC1	-	-5.844
O=C(NC[C@H]1OC[C@@H](NC2CCOCC2)[C@@H]1O)Nc1ccccc1	-2.233	5.519
O=C(c1ccc(Cl)o1)N1CCCC1c1nnc2n1CCCCC2 (centres undefined)	19.48	-20.55
CC1(c2[nH]ncc2C(N)=O)CCN(S(=O)(=O)c2ccccc2)CC1	18.72	-13.64
COc1c(C2CCCN2CC(=O)Nc2cccnc2)c(C)nn1C (centres undefined)	32.81	-3.061
CNc1nc(CNC(=O)Nc2ccccc2SC)cs1	4.811	2.66
Cc1cc(C)n(CC(=O)N(C)Cc2csc(-c3cccs3)n2)c(=O)n1	-5.588	6.25
COc1cccc2c1ccn2CCC(=O)Nc1c2c(nn1C)CSC2	-9.12	-6.604
CC(C)c1cc2c(s1)NC(c1ccccn1)NC2=O (centres undefined)	12.29	2.427
CCCc1noc(CN2CCCC2c2noc(C3CC3)n2)n1 (centres undefined)	28.93	-0.1164
CC1CCc2nc(O)c(C(=O)NCc3ccccc3F)cc2C1 (centres undefined)	-15.72	-2.784
CC(C)CS(=O)(=O)N1C[C@H]2C[C@H](C(=O)N3CCOCC3)[C@@H](C1)O2	-	-2.927
COc1cc(C(=O)N2CCCC(c3cc(C)[nH]n3)C2)cc(OC)c1C (centres undefined)	-6.898	5.471
O=C(C1CCCOC1)N1CCN(CC(F)(F)F)c2ccccc21 (centres undefined)	-20.84	-3.236
O=C(CN1CC(c2nc(-c3ccco3)no2)C1)NCCc1ccccc1	-	4.573
O=C(C1CC2(CCNCC2)CN1)N1CCN(c2ccccc2)CC1 (centres undefined)	-6.874	-45.23
Cc1cc(C)n(CC(=O)NC(Cc2ccsc2)c2ccccn2)c(=O)n1.Cl (centres undefined)	-7.725	-
COCc1ccccc1C(=O)N(C)Cc1ncc(C)c(OC)c1C	-16.8	-4.968
Cc1nn(C)c(C)c1C1CCCN1Cc1cccc(OCC(N)=O)c1 (centres undefined)	15	4.987

Measurements from “University of Dundee, Small-Polar-MMV Screening Library” (2021), ChEMBL document CHEMBL3988442.